Data as given in the supplement of paper PMC3334620.
The full ranking holds about 33,000 sequences; the median of “E-score (-0.5 to 0.5)” is about -0.015, and the highest 2% start at about 0.3. This is one part of the list.

molecular target: T1, Abf1 (UniProt P14164); experiment: PBM E-score (8-mer binding enrichment) (E-score (-0.5 to 0.5)); higher = stronger / more preferred TF binding; conditions: protein concentration: 200 nM; construct: GST-full length
T1 sequence: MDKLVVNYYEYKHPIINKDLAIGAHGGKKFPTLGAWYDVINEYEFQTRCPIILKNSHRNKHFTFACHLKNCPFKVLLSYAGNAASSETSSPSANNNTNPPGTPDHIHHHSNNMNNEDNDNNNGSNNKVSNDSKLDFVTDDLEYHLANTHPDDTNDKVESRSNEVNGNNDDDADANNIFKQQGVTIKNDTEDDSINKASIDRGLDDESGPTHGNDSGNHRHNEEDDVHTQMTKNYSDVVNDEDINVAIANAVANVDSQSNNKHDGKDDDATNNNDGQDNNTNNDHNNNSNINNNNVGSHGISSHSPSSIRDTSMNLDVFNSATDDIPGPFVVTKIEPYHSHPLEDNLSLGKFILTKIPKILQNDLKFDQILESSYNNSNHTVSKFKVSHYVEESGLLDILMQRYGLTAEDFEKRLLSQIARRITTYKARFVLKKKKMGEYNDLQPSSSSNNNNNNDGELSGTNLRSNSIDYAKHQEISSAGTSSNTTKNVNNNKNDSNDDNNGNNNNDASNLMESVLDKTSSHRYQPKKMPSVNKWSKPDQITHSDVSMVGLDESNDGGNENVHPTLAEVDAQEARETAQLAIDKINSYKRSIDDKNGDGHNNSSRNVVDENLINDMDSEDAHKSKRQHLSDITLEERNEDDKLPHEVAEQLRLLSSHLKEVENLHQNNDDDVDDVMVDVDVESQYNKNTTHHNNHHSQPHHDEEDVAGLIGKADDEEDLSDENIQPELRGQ
Method in brief: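 Yeast transcription factors, full-length or as DNA-binding domains, were expressed with a GST tag using PURExpress in vitro transcription/translation. At about 100-200 nM they were applied to universal all-10-mer Agilent arrays, double-stranded by primer extension on fresh or once-stripped slides. Fluorescent anti-GST detected bound protein, and masliner normalised the scans. E-scores for ungapped eight-base words, pooled with reverse complements, came from the Universal PBM Analysis Suite.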

Sequence | PBM E-score
CCGGTACC | -0.121
AGGTCTGC | -0.209
AACTGGAG | -0.175
ACAGGACG | -0.0827
GTTTAAAC | 0.132
GTAACGGA | 0.182
AAGAGCTT | -0.207
GTAAGGAC | -0.0313
ACGCTATC | -0.174
AGTAGACG | 0.187
AATACTAC | 0.301
CCTCCGTC | -0.044
GAAGTGTA | -0.269
CCCAGGAC | -0.152
GCGTGCCA | -0.0325
ATACTATC | 0.15
GATTCCAA | -0.0213
TATGACCA | -0.0211
CGTGTAAG | 0.275
CTAATCCC | -0.0463
CAGGCTGG | -0.255
CTATCGGA | -0.0464
ATCCCGGC | 0.0423
AAGCACAC | -0.153
AAGTCTGC | -0.272

Sequence | PBM E-score
CTAGACCC | -0.0825
TGTTTCAA | 0.0673
ATTTCCGA | 0.151
GCAATATA | 0.108
AAAGCGCG | -0.0642
CTGTGCGA | 0.0508
CTGGAGTA | -0.163
AACAAAGA | -0.113
AAACAGCA | 0.0135
CAACACGC | -0.239
GCTACGGA | 0.218
CGCCCATC | -0.154
CGTGAGTC | 0.0135
ACCCCCAA | -0.219
ACGCCTAA | 0.0738
AGACTTCG | -0.14
CGCGTACG | 0.271
ACTAATAA | 0.264
AAACCTCC | -0.203
AGTTCTGC | -0.197
AGACCTTG | -0.266
ACTCCGAT | -0.196
ATGGGCTC | -0.117
CGATCTAG | 0.0182
CAAGCTTC | -0.0849

Taken from above:
PBM E-score with CTGGAGTA is entered as -0.163
PBM E-score with AAAGCGCG is entered as -0.0642
PBM E-score with ATTTCCGA is entered as 0.151
PBM E-score with CAAGCTTC is entered as -0.0849
PBM E-score with CAACACGC is entered as -0.239
PBM E-score with AGACCTTG is entered as -0.266
PBM E-score with ACTCCGAT is entered as -0.196

More entries

Sequence | PBM E-score
ACGGAACA | 0.142
ACCGGCTG | -0.114
GTTATCAA | 0.143
GCGACGTA | 0.235
ACCGCGAA | -0.0629
CATACCCC | -0.205
CTTACTGC | -0.0383
CCAATAAC | 0.0417
AACGTGAA | 0.057
GGTCATAC | -0.0499
GCCCCTCA | -0.22
ATCAGCGA | -0.0614
CTTATGGA | 0.0136
AATAGCTC | -0.27
ATCGATCG | 0.242
ATGATGGA | -0.031
CGACACGC | 0.0501
ATTGTCCA | 0.208
AACAATTC | -0.151
AGGTTTAG | -0.0716
ATCTTAAC | 0.205
CAAAAAGC | -0.0206
CGCGCGGC | 0.0293
CAGGTCTC | -0.0574
TATCCCGA | 0.0509

Sequence | PBM E-score
TCGTTCAA | 0.357
GAATCCCA | -0.00947
CCTGGCAC | -0.115
AATTAGTG | 0.203
CTATTAAA | -0.0136
GGTTAACA | -0.138
CCCGGCTA | -0.275
ATTGCTGC | -0.106
CAACCCTC | -0.0344
CAGGGCCG | 0.0347
CGGAGTCA | -0.111
AGTATAAC | 0.194
AGAAGCTG | -0.231
ACCTTAGA | 0.00393
AGTAGAAC | -0.103
AGGATGCC | -0.145
ACAGATTA | -0.018
CCAGTAGA | 0.0182
CTAGAAGC | -0.119
ATCATAAC | 0.118
GGATCTTA | 0.123
AGCATTCG | 0.0444
GGGGCTGA | -0.149
TCGGAACA | 0.127
ATGACACC | 0.187

Sequence | PBM E-score
ACTCCTAG | -0.236
AGAGTCGC | -0.117
AATGGACG | 0.158
GAGCGTCC | -0.0323
CGTAGCCC | -0.116
AAGGGCCT | -0.263
AATGTTGG | -0.0056
GAAACCGC | -0.15
ATTTAACG | 0.153
ACGTATCT | -0.0664
CCAATGCC | -0.309
ATCGATTA | 0.151
GCACTACA | 0.00542
AATATCTG | 0.0517
CACTGGGA | -0.109
TAGTTCCA | -0.0461
ATTCTTCA | -0.052
AATGGTGC | -0.217
AGGGGGGA | -0.318
AGCTCCGC | -0.0452
AACAAGAC | -0.107
ACTAACGC | -0.0901
CGGTACAC | -0.0212
GACTGATA | -0.0689
GGGCATCA | -0.121

Sequence | PBM E-score
AACGGCGA | 0.327
ACTGAACC | -0.129
CTGATGTC | 0.155
ACTTGGAG | -0.00439
AGTCGACT | -0.0456
GCGCGCGA | 0.234
ACAGATGT | -0.124
GGTGCGCA | 0.0921
AGGTTTGC | -0.0309
ACTATGGC | -0.189
TATTCAAA | 0.134
ATTCGACG | 0.143
ATACCCAC | 0.102
AGTGTGGA | -0.0464
ACATTCCC | 0.17
GACGAAAC | 0.344
ATGTTTAG | 0.0544
TCTCCCAA | -0.00035
CAGCGTGA | 0.177
AGGACCGA | -0.169
AGGATTTA | 0.0407
GCTTCACC | -0.0942
CTCATCAG | 0.213
AAGATAAA | 0.132
AGTGTCAT | 0.21

Sequence | PBM E-score
CCTCTATC | -0.0168
AAGCGGTA | 0.036
ACGCGAGG | -0.0951
CCCCGGCC | -0.398
CATAACCG | -0.101
AAGGAAGT | 0.0102
ATCTTGTG | -0.056
AACAAAGC | -0.0315
CGCCTCGA | -3e-05
ATCCTCAG | 0.0499
GCAGCATA | -0.113
AGTTTCAT | 0.0393
ACGCAAAA | -0.114
CCCCTACA | -0.293
CCTTCCGA | -0.232
GGTTTTAC | -0.0809
TGACGACA | 0.361
CCCGCGCA | -0.0881
TACAGACA | 0.0696
TACATTCA | -0.0187
CCACCGCA | -0.0873
ATGCTTAC | -0.115
